Measured values taken from paper PMC11324514.
Results are given in words; binding and its absence hold for the method and conditions named. Some results given as binding are weak or reduced against the parent protein; the word gives no strength.

Protein sequences, listed by entry. Tags and fused reporters are not part of them.
UniProt Q07157: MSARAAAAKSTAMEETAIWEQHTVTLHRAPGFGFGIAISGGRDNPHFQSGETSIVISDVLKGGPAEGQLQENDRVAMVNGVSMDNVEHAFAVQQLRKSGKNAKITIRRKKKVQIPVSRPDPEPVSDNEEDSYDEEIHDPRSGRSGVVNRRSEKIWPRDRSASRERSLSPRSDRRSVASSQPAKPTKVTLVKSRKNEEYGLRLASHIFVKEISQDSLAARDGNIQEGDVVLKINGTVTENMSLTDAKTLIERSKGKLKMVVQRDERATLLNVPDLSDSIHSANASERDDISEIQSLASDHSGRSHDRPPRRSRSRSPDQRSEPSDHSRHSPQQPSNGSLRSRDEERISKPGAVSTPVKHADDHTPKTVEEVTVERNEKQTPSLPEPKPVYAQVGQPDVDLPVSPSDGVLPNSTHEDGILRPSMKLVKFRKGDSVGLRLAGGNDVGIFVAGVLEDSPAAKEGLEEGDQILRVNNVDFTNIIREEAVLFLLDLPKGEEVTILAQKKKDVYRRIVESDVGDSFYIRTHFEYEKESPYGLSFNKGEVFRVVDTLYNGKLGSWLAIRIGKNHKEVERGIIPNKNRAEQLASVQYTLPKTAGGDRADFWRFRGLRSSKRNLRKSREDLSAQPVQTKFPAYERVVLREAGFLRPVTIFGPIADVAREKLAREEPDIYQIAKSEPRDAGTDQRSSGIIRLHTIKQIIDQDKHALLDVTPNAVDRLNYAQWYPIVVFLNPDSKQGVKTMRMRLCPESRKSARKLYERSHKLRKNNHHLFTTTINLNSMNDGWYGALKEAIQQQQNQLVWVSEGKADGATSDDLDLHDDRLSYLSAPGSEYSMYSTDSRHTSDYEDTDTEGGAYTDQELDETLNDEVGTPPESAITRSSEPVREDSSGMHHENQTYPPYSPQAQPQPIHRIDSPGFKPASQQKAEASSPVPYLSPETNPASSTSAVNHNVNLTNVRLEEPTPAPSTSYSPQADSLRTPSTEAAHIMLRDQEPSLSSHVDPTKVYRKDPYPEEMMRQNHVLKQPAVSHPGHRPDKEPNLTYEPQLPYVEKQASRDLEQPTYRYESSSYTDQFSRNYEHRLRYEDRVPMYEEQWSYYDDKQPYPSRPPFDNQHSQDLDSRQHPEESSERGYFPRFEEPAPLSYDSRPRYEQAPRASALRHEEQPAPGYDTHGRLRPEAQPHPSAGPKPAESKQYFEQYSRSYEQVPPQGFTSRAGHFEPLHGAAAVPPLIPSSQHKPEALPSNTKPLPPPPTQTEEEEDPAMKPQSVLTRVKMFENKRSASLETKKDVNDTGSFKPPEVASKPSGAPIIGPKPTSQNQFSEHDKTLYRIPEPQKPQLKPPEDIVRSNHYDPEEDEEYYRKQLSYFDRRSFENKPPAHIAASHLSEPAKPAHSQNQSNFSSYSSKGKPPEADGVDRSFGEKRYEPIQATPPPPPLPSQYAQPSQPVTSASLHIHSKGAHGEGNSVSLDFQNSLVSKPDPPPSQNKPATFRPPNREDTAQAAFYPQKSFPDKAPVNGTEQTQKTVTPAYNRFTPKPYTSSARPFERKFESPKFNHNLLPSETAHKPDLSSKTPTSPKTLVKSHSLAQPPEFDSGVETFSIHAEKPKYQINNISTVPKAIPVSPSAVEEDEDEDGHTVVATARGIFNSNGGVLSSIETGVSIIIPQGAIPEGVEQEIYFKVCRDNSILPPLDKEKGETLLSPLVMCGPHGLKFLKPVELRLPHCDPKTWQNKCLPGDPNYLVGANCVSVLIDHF
UniProt Q8NI35: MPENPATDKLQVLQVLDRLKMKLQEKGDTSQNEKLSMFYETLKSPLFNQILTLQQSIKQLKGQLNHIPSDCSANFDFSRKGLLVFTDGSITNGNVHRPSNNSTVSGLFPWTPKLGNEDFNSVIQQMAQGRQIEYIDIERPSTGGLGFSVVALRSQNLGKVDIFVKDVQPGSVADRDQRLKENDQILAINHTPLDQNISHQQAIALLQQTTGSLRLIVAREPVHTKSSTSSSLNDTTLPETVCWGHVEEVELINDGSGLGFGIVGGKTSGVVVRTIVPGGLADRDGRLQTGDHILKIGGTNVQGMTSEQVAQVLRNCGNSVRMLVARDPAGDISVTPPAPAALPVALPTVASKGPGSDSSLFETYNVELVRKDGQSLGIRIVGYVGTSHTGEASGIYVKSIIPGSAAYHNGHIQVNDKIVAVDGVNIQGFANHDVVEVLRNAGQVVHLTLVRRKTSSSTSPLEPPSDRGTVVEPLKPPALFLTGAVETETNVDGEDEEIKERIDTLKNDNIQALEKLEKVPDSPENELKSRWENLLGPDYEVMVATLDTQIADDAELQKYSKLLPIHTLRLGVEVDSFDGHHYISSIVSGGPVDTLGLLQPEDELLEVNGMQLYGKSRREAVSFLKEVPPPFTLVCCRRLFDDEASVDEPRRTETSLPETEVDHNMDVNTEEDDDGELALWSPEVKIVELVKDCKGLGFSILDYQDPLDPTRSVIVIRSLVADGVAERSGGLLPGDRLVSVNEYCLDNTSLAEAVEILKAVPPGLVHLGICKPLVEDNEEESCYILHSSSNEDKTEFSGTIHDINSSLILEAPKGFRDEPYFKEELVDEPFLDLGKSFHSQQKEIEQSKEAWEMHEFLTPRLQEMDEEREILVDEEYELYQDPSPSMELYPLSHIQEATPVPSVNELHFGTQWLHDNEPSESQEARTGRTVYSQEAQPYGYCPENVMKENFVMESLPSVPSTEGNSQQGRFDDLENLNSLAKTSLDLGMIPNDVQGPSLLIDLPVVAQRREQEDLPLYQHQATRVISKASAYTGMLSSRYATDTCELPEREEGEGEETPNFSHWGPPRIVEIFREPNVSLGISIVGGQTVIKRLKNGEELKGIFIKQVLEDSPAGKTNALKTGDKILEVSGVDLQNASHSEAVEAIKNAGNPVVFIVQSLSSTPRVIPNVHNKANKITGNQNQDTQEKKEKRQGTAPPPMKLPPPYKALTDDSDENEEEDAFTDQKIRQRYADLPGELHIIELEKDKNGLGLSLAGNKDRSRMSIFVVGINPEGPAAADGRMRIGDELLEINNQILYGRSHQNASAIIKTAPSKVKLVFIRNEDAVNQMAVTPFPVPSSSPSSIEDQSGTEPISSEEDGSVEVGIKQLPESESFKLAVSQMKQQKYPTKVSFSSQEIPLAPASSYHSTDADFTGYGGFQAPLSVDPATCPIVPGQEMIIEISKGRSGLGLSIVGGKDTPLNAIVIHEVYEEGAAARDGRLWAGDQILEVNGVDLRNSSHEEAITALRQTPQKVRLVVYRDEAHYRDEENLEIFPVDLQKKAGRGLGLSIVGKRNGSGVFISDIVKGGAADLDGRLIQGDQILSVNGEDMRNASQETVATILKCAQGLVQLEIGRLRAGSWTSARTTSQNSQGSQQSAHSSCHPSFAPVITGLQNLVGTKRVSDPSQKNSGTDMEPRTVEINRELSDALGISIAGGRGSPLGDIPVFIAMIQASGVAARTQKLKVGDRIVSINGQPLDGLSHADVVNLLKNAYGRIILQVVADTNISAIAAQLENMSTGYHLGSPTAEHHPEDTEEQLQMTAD

Molecular target: GFP–ZO-1 (UniProt Q07157)
Experiment: client partitioning into condensates in cells (fluorescence microscopy); HEK293 cells coexpressing ZO-1 with GFP and clients with mCherry; client intensity inside against outside the ZO-1 condensate, background subtracted (partitioning coefficient)

binding: binds
Substance: full length PATJ labelled with mCherry (from UniProt Q8NI35 1-1801)
